Results taken from paper PMC6322727.

Amino acid sequences for entries named in this document (tags omitted). Residues count along the entry.
UniProt P25685: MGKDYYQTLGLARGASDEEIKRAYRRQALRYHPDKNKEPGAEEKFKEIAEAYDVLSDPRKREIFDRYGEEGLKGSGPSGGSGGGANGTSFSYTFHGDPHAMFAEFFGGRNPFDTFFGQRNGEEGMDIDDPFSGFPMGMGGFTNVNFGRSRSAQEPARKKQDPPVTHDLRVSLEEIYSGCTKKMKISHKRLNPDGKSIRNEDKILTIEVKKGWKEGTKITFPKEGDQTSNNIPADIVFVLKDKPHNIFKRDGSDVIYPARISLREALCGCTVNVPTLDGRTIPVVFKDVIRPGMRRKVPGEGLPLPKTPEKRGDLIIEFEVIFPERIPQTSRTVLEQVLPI
UniProt P0DMV8: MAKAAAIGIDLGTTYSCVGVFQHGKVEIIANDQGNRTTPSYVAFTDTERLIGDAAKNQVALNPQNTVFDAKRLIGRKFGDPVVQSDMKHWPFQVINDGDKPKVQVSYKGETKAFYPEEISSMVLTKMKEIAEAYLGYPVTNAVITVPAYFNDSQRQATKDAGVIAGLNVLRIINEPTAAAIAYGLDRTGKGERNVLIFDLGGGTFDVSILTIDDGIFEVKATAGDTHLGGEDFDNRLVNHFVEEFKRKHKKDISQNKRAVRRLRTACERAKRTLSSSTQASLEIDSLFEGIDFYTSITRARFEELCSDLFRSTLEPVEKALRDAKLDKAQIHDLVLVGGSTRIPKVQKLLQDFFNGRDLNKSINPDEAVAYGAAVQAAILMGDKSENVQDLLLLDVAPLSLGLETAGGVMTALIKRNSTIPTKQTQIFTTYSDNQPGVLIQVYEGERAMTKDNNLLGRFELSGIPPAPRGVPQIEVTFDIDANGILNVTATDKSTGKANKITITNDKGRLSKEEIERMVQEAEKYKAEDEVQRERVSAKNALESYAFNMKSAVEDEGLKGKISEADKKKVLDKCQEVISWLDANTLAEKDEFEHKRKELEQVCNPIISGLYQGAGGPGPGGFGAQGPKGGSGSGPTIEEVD
UniProt Q92598: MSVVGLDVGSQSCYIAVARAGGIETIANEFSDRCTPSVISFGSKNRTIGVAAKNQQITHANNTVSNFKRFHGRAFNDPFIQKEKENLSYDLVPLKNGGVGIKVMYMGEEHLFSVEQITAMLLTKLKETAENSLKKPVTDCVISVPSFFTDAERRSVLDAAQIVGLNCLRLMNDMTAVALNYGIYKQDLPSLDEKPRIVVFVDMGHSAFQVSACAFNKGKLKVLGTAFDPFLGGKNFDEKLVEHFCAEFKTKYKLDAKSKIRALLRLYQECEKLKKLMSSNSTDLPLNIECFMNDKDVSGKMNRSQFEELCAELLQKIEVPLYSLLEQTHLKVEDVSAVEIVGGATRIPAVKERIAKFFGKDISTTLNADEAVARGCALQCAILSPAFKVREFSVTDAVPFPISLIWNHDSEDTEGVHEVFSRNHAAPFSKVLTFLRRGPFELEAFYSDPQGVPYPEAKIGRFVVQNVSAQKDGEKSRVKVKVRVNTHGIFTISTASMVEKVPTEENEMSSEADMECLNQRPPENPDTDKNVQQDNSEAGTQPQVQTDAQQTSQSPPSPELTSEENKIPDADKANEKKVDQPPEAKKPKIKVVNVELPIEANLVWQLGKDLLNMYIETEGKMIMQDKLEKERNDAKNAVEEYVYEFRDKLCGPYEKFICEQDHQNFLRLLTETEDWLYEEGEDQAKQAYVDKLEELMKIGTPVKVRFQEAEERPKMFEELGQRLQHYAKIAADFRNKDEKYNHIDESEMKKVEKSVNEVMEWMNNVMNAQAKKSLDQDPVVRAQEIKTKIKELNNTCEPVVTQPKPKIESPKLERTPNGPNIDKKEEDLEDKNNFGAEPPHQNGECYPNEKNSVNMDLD
UniProt P27824, residues 21-592: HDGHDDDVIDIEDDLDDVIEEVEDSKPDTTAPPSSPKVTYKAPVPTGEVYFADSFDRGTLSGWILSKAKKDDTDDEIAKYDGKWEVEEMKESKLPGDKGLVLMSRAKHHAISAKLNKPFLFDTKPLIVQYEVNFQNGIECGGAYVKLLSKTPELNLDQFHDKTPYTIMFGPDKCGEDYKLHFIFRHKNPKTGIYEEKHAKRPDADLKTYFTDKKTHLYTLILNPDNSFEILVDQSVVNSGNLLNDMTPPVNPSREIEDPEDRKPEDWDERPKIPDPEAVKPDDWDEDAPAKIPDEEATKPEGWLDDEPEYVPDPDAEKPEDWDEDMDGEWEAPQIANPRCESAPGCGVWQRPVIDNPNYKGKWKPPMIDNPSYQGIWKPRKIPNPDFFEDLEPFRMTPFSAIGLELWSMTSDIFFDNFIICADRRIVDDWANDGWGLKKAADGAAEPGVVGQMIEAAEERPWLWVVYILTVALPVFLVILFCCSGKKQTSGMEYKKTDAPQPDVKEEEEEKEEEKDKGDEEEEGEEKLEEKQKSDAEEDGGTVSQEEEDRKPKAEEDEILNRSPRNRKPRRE

Target: T1, BioId/DGAT2 fusion protein (Myc-BirA* fused to murine diacylglycerol acyltransferase-2) (murine) (UniProt Q9DCV3)
T1 sequence: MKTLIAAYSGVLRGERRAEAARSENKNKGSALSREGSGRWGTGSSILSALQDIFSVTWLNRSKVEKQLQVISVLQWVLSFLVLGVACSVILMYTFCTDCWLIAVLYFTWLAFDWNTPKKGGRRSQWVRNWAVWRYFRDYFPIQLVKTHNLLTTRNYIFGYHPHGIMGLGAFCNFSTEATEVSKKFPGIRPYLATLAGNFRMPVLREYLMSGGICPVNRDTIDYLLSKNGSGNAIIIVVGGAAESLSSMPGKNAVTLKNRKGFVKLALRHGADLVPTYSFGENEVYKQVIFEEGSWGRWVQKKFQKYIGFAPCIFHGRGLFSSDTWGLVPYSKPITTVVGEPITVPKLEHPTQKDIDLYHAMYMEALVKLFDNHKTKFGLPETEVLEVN
Assay: proximity labelling; BioId: BioId/DGAT2 expressed in HEK-293T, 50 uM biotin and 0.5 mM oleate for 12 h; biotinylated proteins captured on magnetic streptavidin beads, SDS-PAGE, bands excised, LC-MS/MS; hits not found in control samples

binding, binds:
calreticulin (from UniProt P27797 18-417)
DNAJB1 (from UniProt P25685 1-340)
HSPA1A (from UniProt P0DMV8 1-641)
VCP (from UniProt P55072 1-806)
HSPH1 (from UniProt Q92598 1-858)
calnexin (from UniProt P27824 21-592)

Target: T2, FLAG-DGAT2 (diacylglycerol acyltransferase-2) (murine (said of the DGAT2 in BioId/DGAT2)) (UniProt Q9DCV3)
T2 sequence: T1 sequence
Assay: affinity purification with mass spectrometry; anti-FLAG agarose immunoprecipitate of HEK-293T cells expressing FL-DGAT2, solubilised with 0.5% CHAPS in PBS, 4 C, eluted with FLAG peptide; mass spectrometry; control: anti-FLAG immunoprecipitate of cells expressing Myc-DGAT2

binding, binds:
calnexin (from UniProt P27824 21-592)

These are yes or no findings as the source states them, for the method shown. Binding seen in cells or lysates may run through a third protein. Here binding means that the protein was enriched with, or labelled near, the bait; the list need not be complete. Where a sequence is shown, tags or fusion partners need not be part of it.
